The campaign covered roughly 400,000 compounds. About 5,500 (1.4%) were called active. Inconclusive means that the source gave no clear call. Such entries were picked first, then a sample of the others. The call rests on the fitted dose curve; in most records, active means well fitted cell-killing curve with a large enough effect; inconclusive means small, poorly fitted or top-dose-only effect, or effect the other way; inactive means flat fitted curve, though single readings scatter. Potencies of inconclusive entries are doubtful fits and often do not repeat.
Experiment: qHTS assay for MDR1-selective chemotherapeutics: Primary screen using the parental adenocarcinoma cell KB-3-1; further: nearly all actives have a fitted effect of over 60% in size
Settings: KB-3-1 viability, CellTiter-Glo ATP luminescence, 72 h; activity change, negative = cytotoxic: at 46.1 µM (top of the series)
Outline: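 Multi-concentration cytotoxicity screen in KB-3-1 cells grown in DMEM lacking phenol red with 10% FBS. After 72 h at 37 °C with compound, ATP-dependent luminescence was recorded.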
On the % scale 0 is the no-effect control and ±100 the full control effect; potency means the concentration at half of the fitted maximal effect.

SMILES	Potency	activity change, negative = cytotoxic
COc1cc(C(=O)NNC2=CC(=O)CC(C)(C)C2)cc(OC)c1OC	inactive	
CCc1ccc(N2CC(C(=O)N/N=C/c3cc([N+](=O)[O-])ccc3O)CC2=O)cc1 (stereo unspecified)	inconclusive: 18.4 µM [cytotoxic, partial curve, poor fit]	
COc1cc(NCCCn2ccc(NC(=O)OCc3ccccc3)nc2=O)cc(OC)c1OC	inactive	
COc1ccc(C(=O)NNC(=O)CNC(=O)C2CCCCC2)cc1	inactive	
CC(=O)c1ccc(S(=O)(=O)N2CCN(CC(=O)Nc3ccnn3C3CCCC3)CC2)cc1	inconclusive: 29.1 µM [cytotoxic, single point]	
CC(C)C[C@H]1CN=C(Nc2ccccc2)N1CCCC1CCCC1	inconclusive: 29.1 µM [cytotoxic, single point]	
CON(c1nc(Cl)nc(N(C)C)n1)S(=O)(=O)c1ccccc1Cl	inconclusive: 29.1 µM [cytotoxic, single point]	
Cc1cccc(N2CCN(S(=O)(=O)c3ccc4[nH]c(=O)ccc4c3)CC2)c1C	inconclusive: 29.1 µM [cytotoxic, single point]	
CCCCn1c(-c2ccc(C)cc2)c(C)n2c3c(=O)n(C)c(=O)n(C)c3nc12	inconclusive: 23.1 µM [cytotoxic, single point]	
Cc1nc2ccccc2n1C1CCN(CC(=O)Nc2ccccc2Br)CC1	inconclusive: 18.4 µM [cytotoxic, single point]	
OCC1OC(n2ccc3c(SCc4ccccc4)ncnc32)C(O)C1O (stereo unspecified)	inconclusive: 29.1 µM [cytotoxic, single point]	
O=C1/C(=C/c2cccs2)N=C(c2cccs2)N1Nc1ccccc1	inconclusive: 29.1 µM [cytotoxic, single point]	
O=S(=O)(NC1CCCC1)c1ccc(S(=O)(=O)N2CCc3ccccc32)cc1	inconclusive: 14.6 µM [cytotoxic, partial curve, poor fit]	
CC(=O)N/C(=C\c1cccc([N+](=O)[O-])c1)C(=O)NC1CCCCC1	inactive	
CCn1cc(C(=O)NCc2ccccc2Cl)c(=O)c2cc(S(=O)(=O)N3CCCCC3)ccc21	inconclusive: 29.1 µM [rising, single point]	
CCCNC(=O)c1ccc(S(=O)(=O)c2ccc(OC)cc2)c([N+](=O)[O-])c1	inconclusive: 29.1 µM [cytotoxic, single point]	
Cc1c(C(=O)OC/C(O)=C(\C#N)c2nc3ccccc3[nH]2)oc2ccc(Br)cc12	inactive	
Nc1c(C(=O)NCCC2=CCCCC2)sc2ccc(S(=O)(=O)N3CCCCC3)cc12	inconclusive: 23.1 µM [cytotoxic, single point]	
O=C(O)c1ccc(NC(=O)c2cccc(S(=O)(=O)Nc3ccc(C(=O)O)cc3)c2)cc1	inactive	
Cc1oc(-c2ccc(C(=O)NCc3ccccc3)cc2)nc1CS(=O)(=O)c1ccccc1	inconclusive: 18.4 µM [rising, partial curve]	
COc1ccc(-c2cc(=O)n(-c3ccc([N+](=O)[O-])cc3)[nH]2)cc1	inconclusive: 11.6 µM [cytotoxic, partial curve]	

For reference, part of the list above.
SMILES	Potency	activity change, negative = cytotoxic
CCc1ccc(N2CC(C(=O)N/N=C/c3cc([N+](=O)[O-])ccc3O)CC2=O)cc1 (stereo unspecified)	inconclusive: 18.4 µM [cytotoxic, partial curve, poor fit]	
COc1cc(NCCCn2ccc(NC(=O)OCc3ccccc3)nc2=O)cc(OC)c1OC	inactive	
COc1ccc(C(=O)NNC(=O)CNC(=O)C2CCCCC2)cc1	inactive	
CC(=O)c1ccc(S(=O)(=O)N2CCN(CC(=O)Nc3ccnn3C3CCCC3)CC2)cc1	inconclusive: 29.1 µM [cytotoxic, single point]	
CC(C)C[C@H]1CN=C(Nc2ccccc2)N1CCCC1CCCC1	inconclusive: 29.1 µM [cytotoxic, single point]	
CON(c1nc(Cl)nc(N(C)C)n1)S(=O)(=O)c1ccccc1Cl	inconclusive: 29.1 µM [cytotoxic, single point]	
Cc1cccc(N2CCN(S(=O)(=O)c3ccc4[nH]c(=O)ccc4c3)CC2)c1C	inconclusive: 29.1 µM [cytotoxic, single point]	
CCCCn1c(-c2ccc(C)cc2)c(C)n2c3c(=O)n(C)c(=O)n(C)c3nc12	inconclusive: 23.1 µM [cytotoxic, single point]	

Additional structures follow:

SMILES	Potency	activity change, negative = cytotoxic
Cc1cc(C)cc(N(CC(=O)Nc2cccc(C)n2)S(=O)(=O)c2c(C)noc2C)c1	inconclusive: 23.1 µM [cytotoxic, partial curve]	
O=C(c1ccco1)N1CCN(C(=O)N2c3ccccc3Sc3ccccc32)CC1	active: 0.517 µM	
Nc1ccc(-c2ccc(N)cc2C(F)(F)F)c(C(F)(F)F)c1	inconclusive: 20.6 µM [cytotoxic, single point]	
c1cc2c3c(cccc3c1)NN=N2	inconclusive: 16.4 µM [cytotoxic, single point]	
C=CCn1c(SCC(=O)Nc2ccc3c(c2)OCO3)nnc1-c1ccccc1O	inconclusive: 9.2 µM [cytotoxic, partial curve]	
CCCc1ccc(OCC(O)CN2CCN(c3ccccc3)CC2)cc1 (stereo unspecified)	inconclusive: 16.4 µM [cytotoxic, single point]	
Cc1ccc2nc(-c3ccc(C)c(NC(=O)COc4ccc(Br)cc4)c3)oc2c1	inconclusive: 9.2 µM [rising, partial curve, poor fit]	
CC1CCCC(NC(=O)CCCn2c(=S)[nH]c3ccccc3c2=O)C1C (stereo unspecified)	inconclusive: 10.3 µM [rising, partial curve, poor fit]	
CN1C(=O)NC(c2ccccc2)C2=C1CN(c1cccc(C(F)(F)F)c1)C2=O (stereo unspecified)	inconclusive: 20.6 µM [cytotoxic, single point]	
Cc1cccc(N2CCN(C(=O)c3oc(=O)c4ccccc4c3-c3ccccc3)CC2)c1C	inconclusive: 4.11 µM [cytotoxic, full curve, poor fit]	
Cc1cc(NC(=O)Nc2csc3c2CCCC3)ccc1Br	inconclusive: 18.4 µM [cytotoxic, single point]	
Cc1cccc(C)c1NC(=O)C(c1cc2ccccc2o1)N1CCC(c2ccccc2)CC1 (stereo unspecified)	inconclusive: 18.4 µM [cytotoxic, single point]	
COc1cccc(N2CCN(C(=O)c3ccccc3SCC(=O)NCc3ccco3)CC2)c1	inactive	
c1ccc2c(c1)CCc1c(-c3ccncc3)n[nH]c1-2	active: 13 µM	
CCCN(CCC)S(=O)(=O)c1ccc(C(=O)Nc2nnc(-c3cccc(OC)c3)o2)cc1	inconclusive: 1.46 µM [cytotoxic, full curve, poor fit]	
Cc1nc2ccccc2n1CCc1nc2c3ccccc3nc(SCC(=O)Nc3ccc(C(C)C)cc3)n2n1	inconclusive: 20.6 µM [cytotoxic, single point]	
CC1CC(C(F)F)n2nc(C(=O)Nc3sc4c(c3C#N)CCC(C(C)(C)C)C4)nc2N1 (stereo unspecified)	active: 16.4 µM	
O=C(NC1CCS(=O)(=O)C1)/C(=C\c1ccco1)NC(=O)c1ccccc1 (stereo unspecified)		inconclusive: -2.18%
O=C(Nc1nnc(SCc2ccc(F)cc2)s1)c1ccccn1	inconclusive: 6.51 µM [cytotoxic, partial curve]	
Cc1nn(Cc2ccccc2)c(C)c1C(=O)OCC(=O)c1cc(C)n(C2CC2)c1C	inconclusive: 16.4 µM [cytotoxic, single point]	
